Assay results taken from publication PMC5591878.
No constants are given. Whether binding was seen depends on the method and setting. In cells and extracts the contact can be indirect. Some results given as binding are weak or reduced against the parent protein; the word gives no strength. For some assays here: Tags and fused reporters may be left off the sequences shown.

Chains of the proteins cited; added tags and fusions are not shown.
UniProt P48580: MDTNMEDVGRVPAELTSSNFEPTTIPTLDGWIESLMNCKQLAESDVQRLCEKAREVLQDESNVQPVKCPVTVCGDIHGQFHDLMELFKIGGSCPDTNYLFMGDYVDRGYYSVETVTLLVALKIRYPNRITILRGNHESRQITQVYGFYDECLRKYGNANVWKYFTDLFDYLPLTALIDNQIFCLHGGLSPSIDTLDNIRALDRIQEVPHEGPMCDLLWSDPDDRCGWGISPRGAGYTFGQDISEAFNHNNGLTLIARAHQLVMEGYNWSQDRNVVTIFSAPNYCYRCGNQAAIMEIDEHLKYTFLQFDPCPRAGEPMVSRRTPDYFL

T1: COT1, nuclear Dbf2-related (NDR) Ser/Thr kinase (Neurospora crassa (endogenous in the myc-pph1 strain)) (UniProt P38679)
T1 sequence: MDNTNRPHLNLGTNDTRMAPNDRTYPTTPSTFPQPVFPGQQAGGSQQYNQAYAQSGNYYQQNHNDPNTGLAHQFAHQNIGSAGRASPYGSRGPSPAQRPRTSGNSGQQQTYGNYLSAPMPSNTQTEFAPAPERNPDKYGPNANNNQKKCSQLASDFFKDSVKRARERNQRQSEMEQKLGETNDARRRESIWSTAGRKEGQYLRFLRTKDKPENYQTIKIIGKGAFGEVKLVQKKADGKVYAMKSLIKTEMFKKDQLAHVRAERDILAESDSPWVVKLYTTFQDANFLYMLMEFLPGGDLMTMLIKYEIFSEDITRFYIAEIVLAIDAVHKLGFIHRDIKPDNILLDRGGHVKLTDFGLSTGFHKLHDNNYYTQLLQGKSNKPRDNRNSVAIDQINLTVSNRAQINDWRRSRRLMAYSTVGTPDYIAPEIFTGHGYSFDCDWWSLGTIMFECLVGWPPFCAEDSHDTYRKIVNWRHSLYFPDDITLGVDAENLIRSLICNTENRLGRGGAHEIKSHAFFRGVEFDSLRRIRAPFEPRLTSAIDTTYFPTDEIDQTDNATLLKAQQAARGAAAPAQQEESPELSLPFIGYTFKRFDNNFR

B1: COT1, nuclear Dbf2-related (NDR) Ser/Thr kinase (protein, UniProt P38679 1-598)
chain: T1 sequence

What was measured:
[1] = target: T1, COT1, nuclear Dbf2-related (NDR) Ser/Thr kinase (Neurospora crassa (endogenous in the myc-pph1 strain)); experiment: co-IP; cleared crude N. crassa mycelial extract incubated 2 h at 4°C with anti-MYC or anti-COT1 antibodies, then with A/G PLUS-Agarose overnight at 4°C; the last two washes with 0.5 M NaCl; western blot with anti-COT1, anti-MYC or anti-GFP antibodies
[2] = target: MYC::PPH1, PP2A catalytic subunit PPH1 with MYC tag (Neurospora crassa) (UniProt P48580); experiment: as above

Molecule	binding [1]	binding [2]
MYC::PPH1, PP2A catalytic subunit PPH1 with MYC tag (from UniProt P48580 1-327) (enzyme)	binds	–
B1	–	binds
